These are yes or no findings as the source states them, for the method shown. Some binding calls cover weakened binding; strength is not graded here.
Molecular target: activated factor XI (FXIa) (human) (UniProt P03951)
Test: sandwich ELISA for the complex in human plasma: FXI mAb capture, polyclonal C1 inhibitor antibody detection

The chains behind the UniProt entries cited, without tags or fusion partners. Residues count along the entry.
UniProt P03951, residues 19-625: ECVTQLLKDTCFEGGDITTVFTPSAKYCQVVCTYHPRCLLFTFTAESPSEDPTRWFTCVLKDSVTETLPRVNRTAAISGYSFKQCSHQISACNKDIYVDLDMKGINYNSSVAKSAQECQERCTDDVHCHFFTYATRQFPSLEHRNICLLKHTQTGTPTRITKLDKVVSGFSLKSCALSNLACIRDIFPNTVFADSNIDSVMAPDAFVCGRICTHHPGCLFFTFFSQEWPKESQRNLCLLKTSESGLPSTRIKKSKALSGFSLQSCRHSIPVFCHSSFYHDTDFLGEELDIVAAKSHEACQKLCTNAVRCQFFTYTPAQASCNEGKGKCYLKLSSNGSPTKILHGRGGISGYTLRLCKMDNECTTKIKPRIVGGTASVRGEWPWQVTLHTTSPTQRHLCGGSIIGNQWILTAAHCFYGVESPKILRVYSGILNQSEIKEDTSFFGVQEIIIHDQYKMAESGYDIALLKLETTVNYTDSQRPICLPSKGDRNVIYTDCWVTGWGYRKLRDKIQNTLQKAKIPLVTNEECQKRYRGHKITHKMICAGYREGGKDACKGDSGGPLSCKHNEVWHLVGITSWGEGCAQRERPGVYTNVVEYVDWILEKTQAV

binding: binds
B1: C1 esterase inhibitor (C1inh) (protein, human, UniProt P05155 23-500, looked up)
chain: NPNATSSSSQDPESLQDRGEGKVATTVISKMLFVEPILEVSSLPTTNSTTNSATKITANTTDEPTTQPTTEPTTQPTIQPTQPTTQLPTDSPTQPTTGSFCPGPVTLCSDLESHSTEAVLGDALVDFSLKLYHAFSAMKKVETNMAFSPFSIASLLTQVLLGAGENTKTNLESILSYPKDFTCVHQALKGFTTKGVTSVSQIFHSPDLAIRDTFVNASRTLYSSSPRVLSNNSDANLELINTWVAKNTNNKISRLLDSLPSDTRLVLLNAIYLSAKWKTTFDPKKTRMEPFHFKNSVIKVPMMNSKKYPVAHFIDQTLKAKVGQLQLSHNLSLVILVPQNLKHRLEDMEQALSPSVFKAIMEKLEMSKFQPTLLTLPRIKVTTSQDMLSIMEKLEFFDFSYDLNLCGLTEDPDLQVSAMQHQTVLELTETGVEAAAASAISVARTLLVFEVQQPFLFVLWDQQHKFPVFMGRVYDPRA
